“Also recorded” adds a separate entry of the source.
What was measured:
[1] = Brightness / vibrancy of color of fortified R-T-E cereal, trained panel; conditions: 0-10 point scale, no brightness to extremely bright; 17 trained panelists; white illumination; in R-T-E cereal
[2] = Metallic offtaste of fortified R-T-E cereal, trained panel; conditions: for Metallic Flavor: 0-10 point scale, no metallic taste to high metallic flavor, in R-T-E cereal

Row | Compound | Brightness Value [1] | Metallic Flavor [2] | Metallic offtaste / taste, result in words ([2]; R-T-E cereal)
1 | O=C([O-])CN(CCN(CC(=O)[O-])CC(=O)[O-])CC(=O)[O-].[Fe+3].[Na+] [Ferric EDTA, sodium ferric ethylenediaminetetraacetic acid complex] | 5.4 | 2.3 | little metallic offtaste; also recorded: did not significantly alter the taste of the cereal product; also recorded: statistically significant lower level of metallic offtaste as compared to the ferrous fumarate and ferrous sulfate samples
2 | O=C([O-])/C=C/C(=O)[O-].[Fe+2] [Ferrous Fumarate, ferrous fumarate, reference compound] | 4.1 | 4.1 | 
3 | ferrous sulfate [reference compound] | 2.7 | 4.7 | 

From patent US5667825A (Kellogg Company, priority 1996, dated 1997)
